Values from PubChem BioAssay AID1159578 (Peter MacCallum Cancer Centre, 2015)
Shown is one part, drawn at random, of about 18,000 reagents tested. Of all reagents, about 1,030 (5.7%) are marked active. 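Inactive calls also include pools with fewer than 3300 nuclei, whose migration was not assessed.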 Raw values vary from plate to plate and are shown uncorrected. Unmarked entries are inactive. Not all columns of the deposit are shown. No sequences are given here.

- Test: 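Genome-wide hunt for genes controlling movement of lymphatic endothelial cells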 (primary screen)
- Cell system: human lymphatic endothelial cells
- Reagents: siRNA pool against human genes, 40 nM
- Duration: 48 h after transfection
- Read-out: 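Cells stained with dye and imaged after a scratch; covered wound area and nuclei counted, duplicates averaged, migration set against mock wells and turned into a robust z-score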
- Scale: migration robust z-score: higher = faster migration into the scratch; nuclei per well: higher = more cells in the well
- Hit rule: 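Migration changed when robust z exceeds 2 or falls below -2 and mean nuclei number is at least 3300; otherwise not called changed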
- Meaning of the calls: active = migration changed; inactive = no migration change, or too few cells

With knock-down of AGTR2, the screen gave migration robust z-score 0.8; migration class with cell-count check migration z between -2 and 2; enough cells; nuclei per well, duplicate mean 4290. After knock-down of BTBD8, the screen gave migration robust z-score 0.5; migration class with cell-count check migration z between -2 and 2; enough cells; nuclei per well, duplicate mean 7298. Knock-down of SHANK3 came out at: migration robust z-score 0.15; migration class with cell-count check migration z between -2 and 2; enough cells; nuclei per well, duplicate mean 6690. Against ELMOD2, the entry reads migration robust z-score -0.41; migration class with cell-count check migration z between -2 and 2; enough cells; nuclei per well, duplicate mean 5970. Depletion of NR1D2 gave: migration robust z-score -0.32; migration class with cell-count check migration z between -2 and 2; enough cells; nuclei per well, duplicate mean 3508. Silencing of TCF25 gave: migration robust z-score 0.1; migration class with cell-count check migration z between -2 and 2; enough cells; nuclei per well, duplicate mean 6045.

SCARF1 gave migration robust z-score 1.68; migration class with cell-count check migration z between -2 and 2; enough cells; nuclei per well, duplicate mean 5296. Against EIF4B, the values are migration robust z-score 2.81 (active); migration class with cell-count check migration z above 2; enough cells; nuclei per well, duplicate mean 5757. Knock-down of ORC5 gave: migration robust z-score 0.96; migration class with cell-count check migration z between -2 and 2; enough cells; nuclei per well, duplicate mean 6666. For H4C2, the values are migration robust z-score 0.18; migration class with cell-count check migration z between -2 and 2; enough cells; nuclei per well, duplicate mean 6136. For ATP2C2 the deposit lists migration robust z-score -0.5; migration class with cell-count check migration z between -2 and 2; enough cells; nuclei per well, duplicate mean 6914. TGFBR1 gave migration robust z-score -0.29; migration class with cell-count check migration z between -2 and 2; enough cells; nuclei per well, duplicate mean 6136.

RWDD4 gave migration robust z-score -1.99; migration class with cell-count check migration z between -2 and 2; enough cells; nuclei per well, duplicate mean 3950. RLIM gave migration robust z-score 0.52; migration class with cell-count check migration z between -2 and 2; enough cells; nuclei per well, duplicate mean 3858.

Limited to “migration robust z-score” (2 entries from above):
BTBD8: 0.5
SHANK3: 0.15

Additional results:
NUP85 scored migration robust z-score 0.14; migration class with cell-count check migration z between -2 and 2; enough cells; nuclei per well, duplicate mean 6808. LMBR1L scored migration robust z-score 0.68; migration class with cell-count check migration z between -2 and 2; enough cells; nuclei per well, duplicate mean 5684. Depletion of ASPRV1 came out at: migration robust z-score 1.06; migration class with cell-count check migration z between -2 and 2; enough cells; nuclei per well, duplicate mean 5432. Depletion of ENOSF1 resulted in: migration robust z-score -0.43; migration class with cell-count check migration z between -2 and 2; enough cells; nuclei per well, duplicate mean 6628. ZNF74 showed migration robust z-score -0.06; migration class with cell-count check migration z between -2 and 2; enough cells; nuclei per well, duplicate mean 6597. For CDH19, the values are migration robust z-score 1.44; migration class with cell-count check migration z between -2 and 2; enough cells; nuclei per well, duplicate mean 6655.

Depletion of IFIT3 resulted in: migration robust z-score -2.34 (active); migration class with cell-count check migration z below -2; enough cells; nuclei per well, duplicate mean 3474.
